Assay results reported in patent publication EP0400686A1, “2-Amino-9-[1,3bis-(isopropoxy)-propyl-2-oxymethyl]-purine, its utilization and medicaments containing it” (HOECHST AKTIENGESELLSCHAFT, priority 1985, dated 1987).
At least one read-out could not be matched to a standard name with certainty.

Test system: Herpes simplex Typ 1
Assay: In vivo test: NMRI mice infected intraperitoneally with Herpes simplex type 1, treated i.p. twice daily for 5 days, survival rate
Details: Herpes simplex Typ 1 an der NMRI-Maus
Excerpt: NMRI-Mäuse, spezifisch pathogenfrei, im Gewicht von etwa 15 g wurden intraperitoneal mit Herpes simplex Typ 1 infiziert und anschließend mit den beschriebenen Verbindungen intraperitoneal therapiert. Als Vergleich diente stets Acyclovir (ACV). Die Behandlung erfolgte zweimal täglich über 5 Tage, beginnend nach der Infektion. Der Behandlungserfolg wurde anhand des Krankheitsverlaufes und der Überlebensrate gegenüber den unbehandelten Infektionskontrollen bestimmt. Letztere erhielten anstelle der zu prüfenden Verbindungen eine wasserlösliche Methylhydroxyäthylcellulose (Viskosität […] in 2 %iger Lösung) (^(R)Tylose MH 300 P) appliziert.
Die chemaotherapeutische Wirkung erfindungsgemäßer Verbindungen ist aus Tabelle 1 ersichtlich.

[1] = Dosierung 10 x 0,2 mg/Maus i.p.
[2] = Dosierung 10 x 0,6 mg/Maus i.p.

| SMILES | Mittlere Überlebensrate x/10 [1] | Mittlere Überlebensrate x/10 [2] |
| --- | --- | --- |
| CC(=O)OCC(CCl)OCn1cnc2c(=O)[nH]c(N)nc21 (racemic) [Verbindung 6, 9-(1-Chlormethyl-2-acetoxyäthoxymethyl)-guanin] | 8/10 | 9/10 |
| CC(=O)OCC(CBr)OCn1cnc2c(=O)[nH]c(N)nc21 (racemic) [Verbindung 7] | 8/10 | 9/10 |
| CC(C)OCC(CO)OCn1cnc2c(=O)[nH]c(N)nc21 (racemic) [Verbindung 14, 9-(1-Isopropoxymethyl-2-hydroxyäthoxymethyl)-guanin] | 8/10 | 10/10 |
| CC(=O)OCC(COC(C)(C)C)OCn1cnc2c(=O)[nH]c(N)nc21 (racemic) [Verbindung 24] | 8/10 | 10/10 |
| C=CCOCC(COC(C)=O)OCn1cnc2c(=O)[nH]c(N)nc21 (racemic) [Verbindung 28] | 8/10 | 10/10 |
| CC(=O)OCC(COCc1ccccc1)OCn1cnc2c(=O)[nH]c(N)nc21 (racemic) [Verbindung 29] | 8/10 | 10/10 |
| CC(=O)OCC(COCC(F)(F)F)OCn1cnc2c(=O)[nH]c(N)nc21 (racemic) [Verbindung 31] | 7/10 | 9/10 |
| CC(=O)OCC(COC(C)C)SCn1cnc2c(=O)[nH]c(N)nc21 (racemic) [Verbindung 39] | 8/10 | 10/10 |
| CC(=O)OCC(COC(C)C)OCn1cnc2cnc(N)nc21 (racemic) [Verbindung 40, 2-Amino-9-(1-isopropoxymethyl-2-acetoxyäthoxymethyl)-purin] | 8/10 | 10/10 |
| CC(=O)OCC(COC(C)C)OCn1cnc2c(N)nc(N)nc21 (racemic) [Verbindung 42] | 8/10 | 10/10 |
| CC(=O)OCC(COC(C)C)OCn1cnc2c(OC(C)C)nc(N)nc21 (racemic) [Verbindung 44, 2-Amino-6-isopropoxy-9-(1-isopropoxymethyl-2-acetoxyäthoxymethyl)-purin] | 9/10 | 10/10 |
| Nc1nc2c(ncn2COCCO)c(=O)[nH]1 [Acyclovir, 9-(2-hydroxyäthoxymethyl)-guanin, reference compound] | 8/10 | 9/10 |
| CCC(C)OCC(COC(C)=O)OCn1cnc2c(=O)[nH]c(N)nc21 (stereo not shown) [Verbindung 22] | 9/10 | 10/10 |
| CC(=O)OCC(COC(C)c1ccccc1)OCn1cnc2c(=O)[nH]c(N)nc21 (stereo not shown) [Verbindung 30] | 8/10 | 10/10 |
| CC(C)OCC(COC(C)C)OCn1cnc2cnc(N)nc21 [Verbindung 48, 2-Amino-9-[1,3-bis-(isopropoxy)-propyl-2-oxymethyl]-purin] | 9/10 | 10/10 |
| CC(C)OCC(COC(C)C)OCn1cnc2c(=O)[nH]c(N)nc21 [Verbindung 49, 9-(1,3-Bis-(isopropoxy)-propyl-2-oxymethyl)-guanin] | 9/10 | 10/10 |
| CC(C)OCC(COC(C)C)OCn1cnc2c(OC(C)C)nc(N)nc21 [Verbindung 52, 2-Amino-6-isopropoxy-9-[1,3-bis-(isopropoxy)-propyl-2-oxymethyl]-purin] | 9/10 | 10/10 |
